Assay results: patent publication US20260327233A1, “Heteroaryl Compounds as Ligand Directed Degraders of IRAK4” (Celgene Corporation, priority 2023, published 2026)
Structures were worked out from names or drawings and are uncertain.

By UniProt entry, the sequences of proteins in these tests, tags left out.
UniProt Q9NWZ3, whole entry: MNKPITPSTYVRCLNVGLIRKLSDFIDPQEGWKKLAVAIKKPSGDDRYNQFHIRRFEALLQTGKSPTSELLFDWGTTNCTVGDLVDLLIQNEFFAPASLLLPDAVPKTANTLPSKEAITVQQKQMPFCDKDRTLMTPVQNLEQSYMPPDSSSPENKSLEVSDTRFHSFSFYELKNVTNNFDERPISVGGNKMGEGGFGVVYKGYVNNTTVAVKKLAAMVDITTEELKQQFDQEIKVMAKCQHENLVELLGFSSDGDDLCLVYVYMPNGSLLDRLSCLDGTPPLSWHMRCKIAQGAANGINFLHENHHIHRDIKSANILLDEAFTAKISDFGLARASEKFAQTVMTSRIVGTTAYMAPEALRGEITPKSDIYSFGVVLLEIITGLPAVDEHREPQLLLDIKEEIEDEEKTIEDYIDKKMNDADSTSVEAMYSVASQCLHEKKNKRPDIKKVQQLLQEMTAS

Molecular target: IRAK4 (Homo sapiens, UniProt Q9NWZ3)
Test: ALE THP1 HTRF (IRAK4 HTRF in THP1 cell lysate, Cisbio HTRF kit)
Settings: anti-IRAK4 d2 / anti-IRAK4 k antibodies, tested form: 2HCl
Procedure: Cell culture media was prepared in a tissue culture hood in a sterile environment by adding 10% FBS and 1% Penicillin Streptomycin to 500 mL no phenol red RPMI 1640 media. The media was filtered through a Nalgene Bottle Top Filter and stored at 4° C.
For Homogenous Time Resolved Fluorescence (HTRF) assays, a Cisbio HTRF kit was used, which included: Lysis Buffer #1 4×, Blocking Reagent #3 100×, 20× Antibody 1 (Anti-IRAK4 d2), 20× Antibody 2 (Anti-IRAK4 k), and Detection Buffer.
4× Lysis Buffer was stored at 4° C. For use as 1× Lysis buffer, the 4× solution was diluted with de-ionized water (distilled water, Gibco Cat. #15230279) and 100× Blocking Reagent in a 1:3:0.04 volume ratio.
20× Antibody Solution aliquots were stored at −80° C. and the Detection Buffer was stored at 4° C. For use as a 1× Antibody Solution, the 20× Antibody Solution aliquot was diluted with Detection Buffer in a 1:19 volume ratio.
Cells were lysed at room temperature for 45 min with shaking. A BCA protein assay was performed and normalization was conducted to the desired total protein concentration with 1× lysis buffer. Next, 1× Antibody Solutions were prepared by adding 380 μL Detection Buffer to 20 μL 20× Antibody Solution aliquots and mixing well. 1× Antibody Solutions were combined 1:1 and briefly vortexed. […] The samples were analyzed by a plate reader (Envision, PerkinElmer) using the Desnor 384 HTRF program.

ALE THP1 HTRF YMIN: 9%
SMILES: N[C@@H]1C[C@@H](F)CN(c2ccn3ncc(C(=O)Nc4cn([C@H]5CC[C@H](CN6CCC7(CCN(c8ccc9c(c8)CN(C8CCC(=O)NC8=O)C9=O)CC7)C6)CC5)nc4C(F)F)c3n2)C1 (stereo partly shown)
